By AC50 is commonly meant the concentration at which the activity in the assay is half-maximal.

Molecules are shown by their SMILES. The list shows a part of the results. Shown are side measurements of this screen, not its main read-out; they come without a call. Compounds called inactive in the main read-out are mostly missing here. Words in brackets tell the shape of the fitted curve; partial curves, single points and poor fits give uncertain potencies.

The values below come from PubChem BioAssay AID1487 (National Center for Advancing Translational Sciences (NCATS), 2009).

This assay is described as follows: qHTS Assay for Modulators of Lamin A Splicing. To be noted: HeLa LMNA splicing GFP/RFP minigene ratio, 48 h. The essentials: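 Read-out is the ratio of GFP to DsRed2 object intensity, acquired by 488 nm laser-scanning cytometry on HeLa lamin A-EGFP minigene reporter cells. Compound incubation 48 hrs at 37 °C in Opti-MEM with 2% FBS; DMSO 0.5% final.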
(In general: Quantitative high-throughput screening tests each substance at several concentrations.)

The mark [1] stands for this setting: measured here: GFP splicing reporter channel.
[2] abbreviates: measured here: RFP viability control channel.

`Cn1c(CNC(=O)c2ccccc2F)nnc1SCC(=O)NCc1ccccc1`: the half-maximal activity concentration (AC50) reads like this: under setting [1], 0.631 µM [falling, full curve]; under setting [2], 0.316 µM [falling, full curve].

For the compound `COC(=O)c1scc(-c2ccc(C)cc2)c1S(=O)(=O)N1CCN(c2ccccc2)CC1`, the AC50 was 0.00891 µM [falling, full curve, poor fit] under setting [1] and 0.0141 µM [falling, full curve, poor fit] under setting [2].

Regarding `C#CCCOC(=O)N1C2=NC(C(=O)OC)=C(C(=O)OC)[C@@H]3Nc4ccccc4[C@]23C[C@H]1C(=O)OC`, under setting [1], the AC50 was 0.0794 µM [rising, single point]. For the compound `Cc1ccc(-c2nnn(CCC(=O)Nc3ccc4c(c3)OCO4)n2)cc1`, under setting [2], the AC50 was 17.8 µM [rising, partial curve, poor fit].

`COc1ccc(S(=O)(=O)N2CCN(Cc3ccc(Cl)cc3)CC2)cc1`: the AC50 is 35.5 µM [rising, single point] under setting [1] and 22.4 µM [rising, single point] under setting [2]. For `CCCCC1=CC2=CC(=O)C(C)(OC(=O)CC)C(=O)C2=CN1CCCN(CC)CC` (configuration not stated), the AC50 under setting [2] is 0.0316 µM [falling, full curve, poor fit]. Take `CCCCC(NC(C)=O)c1nc2ccccc2n1CCCC` (configuration not stated): the concentration at half-maximal activity (AC50) under setting [1] is 11.2 µM [rising, partial curve] and the AC50 under setting [2] is 14.1 µM [rising, single point]. On to `CC(C)Oc1cccc(C(=O)C2CCCN(C(=O)c3csnn3)C2)c1` (configuration not stated), for which the AC50 under setting [2] was 2 µM [falling, full curve, poor fit]. Turning to `CCC(Sc1nc2ccccc2s1)C(=O)Nc1nnc(C)s1` (configuration not stated), the concentration at half-maximal activity (AC50) was 35.5 µM [rising, single point] under setting [1] and 35.5 µM [rising, single point] under setting [2]. On to `CCn1c(SCC(=O)c2ccccc2)nnc1-c1cc2cc(Br)ccc2o1`, for which the AC50 reads like this: under setting [1], 0.00794 µM [rising, full curve, poor fit]; under setting [2], 0.01 µM [rising, full curve, poor fit]. On to `CC1(C)N=C(SCc2ccccc2Cl)c2ccccc2N1`, for which the AC50 is, setting by setting: under setting [1], 20 µM [falling, partial curve, poor fit]; under setting [2], 20 µM [falling, partial curve, poor fit]. With `NCC1CCC(N)C(O[C@@H]2C(O)[C@H](O[C@H]3OC(CO)C(O)C(N)C3O)[C@@H](N)C[C@H]2N)O1` (some centres not stated), the AC50 is, setting by setting: under setting [1], 0.447 µM [falling, partial curve]; under setting [2], 15.8 µM [falling, partial curve, poor fit]. Consider `Cc1cc(Cl)ccc1OCC(=O)Nc1ccccc1N1CCOCC1`, for which the AC50 reads like this: under setting [1], 11.2 µM [rising, single point]; under setting [2], 22.4 µM [rising, single point].
